Some of the results follow. Single values are uncertain here, since repeats match poorly.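 Free-swimming zebrafish larvae were scored for O-bend response probability to dark flashes (naive: first five; training: remaining flashes of four 60-flash blocks; test: later 60-flash block) and for turning toward alternating leftward/rightward LED motion (OMR). Six treated larvae were compared with sixty 0.1% DMSO controls; |SSMD|≥2 defined a hit.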
What was measured:
Conditions in all cases: 10 µM; pre-incubation: 30-90 min
[1] = system: Danio rerio larvae (5 dpf, TLF); assay: OMR-Perf (SSMD vs DMSO vehicle); higher = higher than vehicle (e.g. higher dark-flash O-bend response probability, or better optomotor performance)
[2] = system: Danio rerio larvae (5 dpf, TLF); assay: Prob-Test (SSMD vs DMSO vehicle); higher = higher than vehicle (e.g. higher dark-flash O-bend response probability, or better optomotor performance)
[3] = system: Danio rerio larvae (5 dpf, TLF); assay: Prob-Naive (SSMD vs DMSO vehicle); higher = higher than vehicle (e.g. higher dark-flash O-bend response probability, or better optomotor performance)
[4] = system: Danio rerio larvae (5 dpf, TLF); assay: Prob-Train (SSMD vs DMSO vehicle); higher = higher than vehicle (e.g. higher dark-flash O-bend response probability, or better optomotor performance)

Compound	OMR-Perf [1]	Prob-Test [2]	Prob-Naive [3]	Prob-Train [4]
Cl.Nc1ccn([C@@H]2O[C@@H](CO)[C@@H](O)C2(F)F)c(=O)n1 [Gemcitabine HCl (Gemzar)]	-0.41	0.237	0.124	-0.233
Cc1ccc(-n2nc(C(C)(C)C)cc2NC(=O)Nc2ccc(OCCN3CCOCC3)c3ccccc23)cc1 [BIRB 796 (Doramapimod)]	-0.241	-0.775	-0.212	-0.605
Cc1c(Cn2c(C)nc3c(C(=O)O)cc(N4CCOCC4)cc32)cccc1C(F)(F)F	-0.8	0.371	0.515	0.565
Nc1ccc(S(=O)(=O)Nc2ncccn2)cc1 [Sulfadiazine]	0.3	0.0908	0.549	0.821
CCCCC(=O)N(Cc1ccc(-c2ccccc2-c2nn[nH]n2)cc1)[C@H](C(=O)O)C(C)C [Valsartan]	0.487	0.0613	-0.42	-0.316
COc1cc(CCc2cc(NC(=O)c3ccc(N4C[C@@H](C)N[C@@H](C)C4)cc3)n[nH]2)cc(OC)c1	0.878	1.26	0.319	0.955
CC(C)(C)CC(C)(C)c1ccc(O)c(Cc2ccc(Cl)cc2Cl)c1 [Clofoctol]	0.587	-0.469	-0.293	-1.06
NCC[C@H](O)C(=O)N[C@@H]1C[C@H](N)[C@@H](O[C@H]2O[C@H](CN)[C@@H](O)[C@H](O)[C@H]2O)[C@H](O)[C@H]1O[C@H]1O[C@H](CO)[C@@H](O)[C@H](N)[C@H]1O [Amikacin hydrate]	0.0184	0.336	-0.142	0.204

A second format for some results above:
Compound,OMR-Perf [1],Prob-Test [2],Prob-Naive [3],Prob-Train [4]
CC(C)(C)CC(C)(C)c1ccc(O)c(Cc2ccc(Cl)cc2Cl)c1 [Clofoctol],0.587,-0.469,-0.293,-1.06
NCC[C@H](O)C(=O)N[C@@H]1C[C@H](N)[C@@H](O[C@H]2O[C@H](CN)[C@@H](O)[C@H](O)[C@H]2O)[C@H](O)[C@H]1O[C@H]1O[C@H](CO)[C@@H](O)[C@H](N)[C@H]1O [Amikacin hydrate],0.0184,0.336,-0.142,0.204

From the supplement of paper PMC10727501
